Part of at least one peptide drawing is inferred or uncertain, most often the ends. Residues, ends and D or L forms follow the SMILES beside them.
System: HLA-A2 matched target cells pulsed with peptide
Experiment: CTL response of peptide-stimulated patient PBMC against peptide-pulsed target cells
Format: cell-based, human
Settings: patient with acute hepatitis (HLA-A2+), PBMCs stimulated with individual peptides, FIG. 1

SMILES: CC(C)C[C@H](NC(=O)[C@H](CC(N)=O)NC(=O)[C@H](CC(C)C)NC(=O)[C@@H](N)CC(=O)O)C(=O)NCC(=O)N[C@@H](CC(N)=O)C(=O)N[C@@H](CC(C)C)C(=O)N[C@@H](CC(N)=O)C(=O)N[C@H](C(=O)O)C(C)C [927.30] (H-DLNLGNLNV-OH)
- stimulation of specific CTL response: did not stimulate the specific CTL response
